What was measured:
Settings in all cases: headspace of culture
Staphylococcus aureus = assay: Headspace VOC detection by dual GC-MS/DMS in Staphylococcus aureus culture; parameters: key: Y = detectable; ND = not detectable
Klebsiella pneumonia = assay: Headspace VOC detection by dual GC-MS/DMS in Klebsiella pneumonia culture; parameters: key: Y = detectable; ND = not detectable
E. Coli = assay: Headspace VOC detection by dual GC-MS/DMS in E. coli culture; parameters: species or system Escherichia coli; key: Y = detectable; ND = not detectable

Structure (SMILES) | VOC detectable in Staphylcoccus (Staphylococcus aureus) | VOC detectable in Klebsiella (Klebsiella pneumonia) | VOC detectable in E. Coli (E. Coli)
CC(=O)C(C)=O [2,3-butanedione] | Y |  | 
CCCCCC(C)=O [2-heptanone] |  | Y | 
CCCCCCCC(C)=O [2-nonanone] |  | Y | 
CC(=O)C(C)O (stereo not shown) [3-hydroxy-2-butanone] | Y |  | 
O=CCc1ccccc1 [benzeneacetaldehyde] | Y |  | 
CS [methanethiol] |  | Y | Y
